In publication PMC4479000 one finds binding data, which are given here for one substance.

Chains of the proteins cited; added tags and fusions are not shown. Residues count along the entry.
UniProt Q04721, residues 26-1677: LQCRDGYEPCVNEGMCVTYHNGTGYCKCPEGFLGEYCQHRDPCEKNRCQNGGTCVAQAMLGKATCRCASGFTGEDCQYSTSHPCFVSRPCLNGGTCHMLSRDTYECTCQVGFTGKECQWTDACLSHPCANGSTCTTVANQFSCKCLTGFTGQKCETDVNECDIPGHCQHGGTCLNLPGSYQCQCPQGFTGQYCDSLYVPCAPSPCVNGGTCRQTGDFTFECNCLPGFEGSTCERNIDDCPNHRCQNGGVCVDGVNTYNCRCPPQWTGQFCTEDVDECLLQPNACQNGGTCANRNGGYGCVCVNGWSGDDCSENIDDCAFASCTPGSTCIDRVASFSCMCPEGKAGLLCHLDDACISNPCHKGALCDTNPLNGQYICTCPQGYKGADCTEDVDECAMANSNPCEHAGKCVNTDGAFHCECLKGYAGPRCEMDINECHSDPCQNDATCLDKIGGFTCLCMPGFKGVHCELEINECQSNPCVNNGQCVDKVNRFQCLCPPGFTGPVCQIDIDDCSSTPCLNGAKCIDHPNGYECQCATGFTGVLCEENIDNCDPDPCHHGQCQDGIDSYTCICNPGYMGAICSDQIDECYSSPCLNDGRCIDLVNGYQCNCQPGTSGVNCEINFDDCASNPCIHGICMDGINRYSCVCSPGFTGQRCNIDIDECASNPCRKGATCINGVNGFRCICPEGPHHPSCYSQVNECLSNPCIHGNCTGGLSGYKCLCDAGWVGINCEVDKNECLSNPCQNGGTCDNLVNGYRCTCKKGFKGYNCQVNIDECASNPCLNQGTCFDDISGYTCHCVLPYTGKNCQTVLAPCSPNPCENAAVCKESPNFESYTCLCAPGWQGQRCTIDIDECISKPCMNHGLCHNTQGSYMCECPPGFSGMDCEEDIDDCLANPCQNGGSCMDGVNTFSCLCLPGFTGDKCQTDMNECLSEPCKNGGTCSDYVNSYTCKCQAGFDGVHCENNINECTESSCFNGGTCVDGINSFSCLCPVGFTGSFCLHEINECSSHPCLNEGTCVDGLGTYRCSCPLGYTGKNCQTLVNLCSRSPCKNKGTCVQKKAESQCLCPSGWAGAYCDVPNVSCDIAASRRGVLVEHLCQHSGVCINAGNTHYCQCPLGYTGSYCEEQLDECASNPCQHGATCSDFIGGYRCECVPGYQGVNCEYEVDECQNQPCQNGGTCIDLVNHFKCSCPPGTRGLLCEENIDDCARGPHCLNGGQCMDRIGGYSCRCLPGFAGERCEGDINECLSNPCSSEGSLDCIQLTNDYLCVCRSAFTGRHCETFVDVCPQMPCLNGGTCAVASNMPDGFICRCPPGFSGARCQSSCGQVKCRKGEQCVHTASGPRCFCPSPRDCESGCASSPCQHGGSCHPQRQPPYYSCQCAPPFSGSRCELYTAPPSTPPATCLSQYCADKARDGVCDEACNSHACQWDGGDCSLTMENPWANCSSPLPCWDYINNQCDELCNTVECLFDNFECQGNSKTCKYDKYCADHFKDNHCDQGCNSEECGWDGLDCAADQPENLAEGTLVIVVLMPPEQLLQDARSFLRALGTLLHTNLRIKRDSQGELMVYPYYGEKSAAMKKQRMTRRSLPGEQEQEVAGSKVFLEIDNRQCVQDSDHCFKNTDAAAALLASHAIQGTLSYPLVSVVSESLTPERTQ

For the experiment, the target named is T1, Gal4 DNA-binding domain (BD) fused C8orf4 (UniProt Q9NR00).
T1 sequence: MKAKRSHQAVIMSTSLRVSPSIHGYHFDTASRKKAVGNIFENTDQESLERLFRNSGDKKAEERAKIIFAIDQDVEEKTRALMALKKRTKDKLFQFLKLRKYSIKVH
Kind of experiment: two-hybrid; Matchmaker Gold Yeast Two-Hybrid system; BD-C8orf4 (pGBKT7) and AD-N2ICD or AD-N2ECD (pGADT7) co-transformed into AH109; SD plate lacking adenine, histidine, tryptophan and leucine; beta-galactosidase activity.

No constants are given. Whether binding was seen depends on the method and setting. Sequences can lack the tags named with a protein.

Regarding “Gal4-activating domain (AD) fused N2ECD (from UniProt Q04721 26-1677) (domain or fragment)”, the binding result is “no binding”.
